Data from publication PMC5443481, “Binding of CIB1 to the αIIb tail of αIIbβ3 is required for FAK recruitment and activation in platelets” (PLoS ONE, 2017).
Results are given in words; binding and its absence hold for the method and conditions named. Binding seen in cells or lysates may run through a third protein. A result given as binding can be weak or reduced; the word gives no strength.

Legend:
[1] = target: T1, calcium- and integrin-binding protein 1 (CIB1) (human (endogenous in platelets)) (UniProt Q99828); assay: co-IP; anti-CIB1 immunoprecipitates of lysates of human platelets incorporated (DMSO method) with αIIb peptide (2.5 μM), scrambled peptide, anti-CIB1 or cIgG and spread on Fg; the pairs that are blocked
T1 sequence: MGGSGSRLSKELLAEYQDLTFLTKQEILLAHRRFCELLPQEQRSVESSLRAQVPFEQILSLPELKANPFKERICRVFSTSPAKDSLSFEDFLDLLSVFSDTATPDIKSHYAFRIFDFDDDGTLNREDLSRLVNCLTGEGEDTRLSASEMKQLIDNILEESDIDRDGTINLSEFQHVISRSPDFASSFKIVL

[2] = target: T1, calcium- and integrin-binding protein 1 (CIB1) (human (endogenous in platelets)); assay: co-IP; anti-CIB1 immunoprecipitates (overnight 4°C, protein G-Sepharose) of pre-cleared 1% Nonidet P-40 lysates of washed human platelets exposed to BSA or immobilized Fg for ~45 min; blots for αIIb, FAK, c-Src; treatments: DMSO, BAPTA-AM (50 μM), cytochalasin D after adhesion

binding [1]: binds
binding [2]: binds
Substance: integrin αIIb subunit of αIIbβ3 (human (endogenous in platelets)) (receptor)
